In patent publication US20250155433A1, “FLUORESCENT SENSORS FOR DETECTION OF SIDEROPHORES AND OTHER MOLECULES PRODUCED BY BACTERIAL PATHOGENS” (Kansas State University Research Foundation, priority 2021, published 2025):

Experiments:
E. coli Nissle 1917 = experiment: Siderophore concentrations in spent media, Nissle 1917; format: cell-based; settings: for Concentration in spent bacterial media, Nissle: ferrated supernatant
E. coli MG1655 = experiment: Siderophore concentrations in spent media, MG1655; format: cell-based; settings: ferrated supernatant

SMILES	Production by E. coli Nissle 1917 (E. coli Nissle 1917) [mM]	Concentration in spent bacterial media, Nissle (E. coli Nissle 1917; M9, 24 h) [µM]	Concentration in spent bacterial media, Nissle (E. coli Nissle 1917; MOPS, 24 h)	Concentration in spent bacterial media, MG1655 (E. coli MG1655; M9, 24 h) [µM]	Concentration in spent bacterial media, MG1655 (E. coli MG1655; MOPS, 24 h) [µM]
CC(=O)N(O)CCCC[C@H](NC(=O)CC(O)(CC(=O)N[C@@H](CCCCN(O)C(C)=O)C(=O)O)C(=O)O)C(=O)O [Abn, aerobactin]	0.2	–	–	–	–
CC(=O)N([O-])CCCC[C@H](NC(=O)CC(O)(CC(=O)N[C@@H](CCCCN([O-])C(C)=O)C(=O)O)C(=O)[O-])C(=O)O.[Fe+3] [FeAbn, ferric aerobactin]	–	26.5 ± 0.9	180 ± 14 µM	0	0
O=C(N[C@H]1COC(=O)[C@@H](NC(=O)c2cccc([O-])c2[O-])COC(=O)[C@@H](NC(=O)c2cccc([O-])c2[O-])COC1=O)c1cccc([O-])c1[O-].[Fe+3] [FeEnt, ferric enterobactin]	–	0.04 ± 0.01	4.6 ± .01 µM	3.2 ± 0.1	32.5 ± 0.13
O=C(N[C@H]1COC(=O)[C@@H](NC(=O)c2cc([C@@H]3O[C@H](CO)[C@@H](O)[C@H](O)[C@H]3O)cc(O)c2[O-])COC(=O)[C@@H](NC(=O)c2cc([C@@H]3O[C@H](CO)[C@@H](O)[C@H](O)[C@H]3O)cc(O)c2[O-])COC1=O)c1cccc(O)c1[O-].[Fe+3] [FeGEnt]	–	0.3	–	1.6	–
